Test system: astrocytes
Experiment: Inhibition of LPS-induced astrocyte activity (cell number, cell area, GFAP intensity; high content imaging)
Assay type: cell-based, rats
Settings: LPS-activated astrocytes, 1-10 nM drug, compared to LPS activity
Experimental: The brains of 1-2 day old rats were excised, separated from the cerebral cortex, and cultured. That is, the […] cortex was divided into single cells in high-glucose DMEM medium containing 10% FBS and penicillin-streptomycin solution (5000 units/ml penicillin, 5 mg/ml streptomycin, Corning, USA), and cultured in a 75-cm2T flask. (0.5 hemispheres/flask) in a cell incubator at 5% CO2 and 37° C.
After 1 week of culture, microglia were removed by shaking at 250 rpm for 4 hours, and the cultured astrocytes were harvested using 0.1% trypsin to obtain an astrocyte population. Astrocytes were cultured in 6-well plates previously coated with Poly-D-Lysine (Sigma).
Astrocytes were used after primary culture was isolated from the brain of pup within 1 to 3 days after birth, and the separated astrocytes were treated with LPS at expressing the lowest concentration of IL-6. The drug treatment was performed simultaneously with LPS, and the activity of astrocytes was evaluated through the number of proliferated cells and changes in morphology (FIG. 2).

Compound: COc1cc2c(cc1OC)C(=O)C(CC1CCN(Cc3ccccc3)CC1)C2 (centres unmarked) [donepezil, reference compound]
- cell area (FIG. 4): increased
- intensity of GFAP (FIG. 4): almost the same or slight increase
